This is an account of results in PubChem BioAssay AID2685 (National Center for Advancing Translational Sciences (NCATS), 2010).

Molecules are shown by their SMILES. This is one part of the list. The main result of the screen is listed elsewhere. These columns were measured beside it and carry no call. Compounds called inactive in the main read-out are mostly missing here. Words in brackets tell the shape of the fitted curve; partial curves, single points and poor fits give uncertain potencies.

The experiment can be described thus: qHTS Assay for Lipid Storage Modulators in Drosophila S3 Cells.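 As to cell number change: cells counted by Cell Tracker Red CMTPX staining in the red channel.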 Particulars: BODIPY lipid droplet fluorescence, 18-24 h; for cell number change: measured here: cell count max response, cells fed with added oleic acid. A digest of the protocol:
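Drosophila S3 cells got compounds at several concentrations plus oleic acid (400 uM solution). Laser-scanning cytometry with 488 nm excitation read lipid droplets at 500-530 nm and cells at 575-640 nm. Percent activity was relative to 20 uM Triacsin C.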

Setting [1] is: measured here: lipid fluorescence (Fed channel) AC50, cells fed with added oleic acid.
[2] abbreviates: measured here: cell number channel AC50, cells fed with added oleic acid.

Usually AC50 stands for the concentration giving half of the maximal activity seen. Low values mean activity at low concentration, high ones activity only at high concentration. Take `O=S(=O)(c1cccc(S(=O)(=O)N2CCCC2)c1)c1cccc(S(=O)(=O)N2CCCC2)c1`: the cell number change was 2.67%. Besides, the AC50 under setting [1] was 0.103 µM [falling, full curve, poor fit].
In the case of `COc1ccc(S(=O)(=O)N2CCN(C(=O)c3c(C)nn(-c4ccccc4)c3Cl)CC2)cc1`, the cell number change amounted to 10.8%.
`O=c1cnnc(Nc2ccccc2)[nH]1`: the cell number change was -34.3%. For the same compound, under setting [2], the AC50 is 0.731 µM [falling, full curve, poor fit].
Turning to `CC1CN(C(=O)NCc2ccccc2)c2cc(Cl)ccc2O1` (centres undefined), the cell number change worked out at 35.5%. The AC50 under setting [2] was 0.731 µM [rising, full curve].
Take `Cc1cc(SCC(=O)OCC(=O)NCC2CCCO2)c(C)cc1Br` (centres undefined): the cell number change is -24.8%. In addition, under setting [1], the AC50 was 0.651 µM [falling, full curve, poor fit].
Consider `CCc1cc(C(=O)N=Nc2c(O)[nH]c3ccc([N+](=O)[O-])cc23)c2ccccc2n1`, for which the cell number change was found to be 6.33%.
For `CCOc1ccc(/C=N/NC(=O)c2cc3c(OC)cc(OC)cc3[nH]2)cc1OC`, the cell number change turned out to be 1.97%. In addition, the half-maximal activity concentration (AC50) under setting [1] was 0.103 µM [rising, full curve, poor fit].
Turning to `COc1ccc(C(=O)Nc2ccc(S(=O)(=O)Nc3cnc4ccccc4n3)cc2)cc1`, the cell number change stood at 15.2%.
As to `Cc1c(C2C(C#N)=C(N)N(c3cccc([N+](=O)[O-])c3)C3=C2C(=O)CCC3)cnn1C` (centres undefined), the cell number change amounted to 15.8%. Moreover, the half-maximal activity concentration (AC50) under setting [1] is 29.1 µM [rising, single point].
On to `Cc1ccc(C(=O)Oc2csc(=S)n2C(=O)c2ccc(C)cc2)cc1`, for which the cell number change was -13.5%. Also, under setting [1], the AC50 was 0.92 µM [falling, full curve, poor fit].
For `COc1ccc(NC(=O)c2ccco2)cc1NC(=O)COc1ccccc1[N+](=O)[O-]`, the cell number change was 11.1%. For the same compound, the AC50 under setting [1] is 14.6 µM [falling, single point].
For `CC(OC(=O)Cn1[nH]c(=O)c2ccccc2c1=O)C(=O)Nc1ccccc1[N+](=O)[O-]` (centres undefined), the AC50 under setting [1] is 29.1 µM [rising, single point].
On to `Cc1ccc(C(=O)c2sc3c(c2N)c(=O)[nH]c(=O)n3CCc2ccccc2)cc1`, for which the cell number change is 12.1%. The AC50 under setting [2] was 4.61 µM [falling, single point]. Further, under setting [1], the AC50 was 0.517 µM [rising, full curve].
Consider `CCCc1nc2ccc(NC(=O)NCCC(=O)OCC)cc2c(=O)n1Cc1cccc(Cl)c1`, for which the cell number change turned out to be 20.4%. In addition, the AC50 under setting [1] is 16.4 µM [falling, partial curve].
With `CCOC(=O)C1(CC2CCCCO2)CCN(S(=O)(=O)c2ccsc2)CC1` (centres undefined), the cell number change was -12.9%. Also, the concentration at half-maximal activity (AC50) under setting [1] was 0.82 µM [falling, full curve, poor fit].
For the compound `C=CCNCCCCOc1ccc(OCC)cc1`, the cell number change is 19.3%.
`O=C(O)CCS(=O)(=O)c1cc(Br)cc2c1N(C(=O)C1CC1)CC2`: the cell number change was 12.4%.
For the compound `COc1ccccc1/C=C/C(=O)OCC(=O)Nc1c(F)cccc1F`, under setting [1], the AC50 is 1.46 µM [rising, single point].
Turning to `O=C1CC[C@@H](CN(Cc2ccccn2)Cc2nc(Cc3ccccc3)no2)N1`, the cell number change amounted to 18.1%. Also, under setting [1], the AC50 was 4.11 µM [rising, full curve, poor fit].
`CCCn1c2ccccc2c2nc3ccccc3nc21`: the cell number change was -27.2%. The AC50 under setting [1] is 0.82 µM [rising, full curve].
In the case of `CC1CCC(NC(=O)c2cc3c(=O)n(C)c4ccccc4c3n2C)CC1` (centres undefined), the cell number change is -3.98%.
In the case of `c1cncc(-c2nc(NCc3cccs3)c3ccccc3n2)c1`, the cell number change was 25.9%. In addition, the concentration at half-maximal activity (AC50) under setting [1] was 0.0366 µM [rising, full curve].
As to `CCCNC(=O)NC(=O)COC(=O)CC(NC(N)=O)c1ccc(Cl)cc1` (centres undefined), the cell number change stood at 5.81%.
On to `CCN(CC)c1ccc(C(=O)N/N=C(\C)c2cccnc2)cc1`, for which the AC50 under setting [1] was 16.4 µM [rising, single point].
Turning to `O=C(c1ccc([N+](=O)[O-])cc1)N1CCC(Cc2ccccc2)CC1`, the cell number change turned out to be 83.3%. Moreover, the AC50 under setting [2] is 9.2 µM [rising, partial curve, poor fit]. For the same compound, the AC50 under setting [1] was 13 µM [rising, partial curve, poor fit].
For the compound `N#C/C(=C\C=C\c1ccccc1)C(=O)NCc1ccco1`, the cell number change is -15.6%.
Turning to `C=CCN1C(=O)/C(=C/c2ccc(O)cc2)S/C1=N/c1nccs1`, under setting [1], the AC50 was 3.26 µM [rising, full curve, poor fit].
With `CCOC(=O)[C@@H]1[C@H]2COc3cc(OC)ccc3[C@@H]2N2C(=O)N(c3cccc(Cl)c3)C(=O)[C@@]12C`, the cell number change is -0.299%.
For `COc1ccc(C2=NN(C(=O)c3ccccc3)C(c3ccc(OC)c(OC)c3)C2)cc1OC` (centres undefined), the cell number change was 8.33%. Moreover, the AC50 under setting [1] was 0.651 µM [rising, partial curve, poor fit].
As to `COc1ccc(/C=C/C(=O)c2ccc(C(=O)/C=C/c3ccc(OC)c(OC)c3)cc2)cc1OC`, the cell number change was found to be 457%. The AC50 under setting [2] was 25.9 µM [rising, partial curve]. Further, under setting [1], the AC50 is 16.4 µM [rising, partial curve].
On to `COCCNC(=O)c1ccc(N2CC3CC(C2)c2cccc(=O)n2C3)c(NC(=O)c2ccc(F)cc2)c1` (centres undefined), for which the cell number change was determined as 82.5%. Under setting [2], the AC50 is 25.9 µM [rising, partial curve, poor fit].
`Cc1cc(C)c(C#N)c(SCC(=O)Nc2ccc3c(c2)OCO3)n1`: the concentration at half-maximal activity (AC50) by setting is: under setting [2], 1.16 µM [rising, full curve]; under setting [1], 1.16 µM [rising, full curve].
Turning to `CC1CCCCC1NCC#CCOc1ccc(Cl)cc1` (centres undefined), the cell number change was -5.1%.
Turning to `CC1CC(=O)NN=C1c1ccc(NCCO)c([N+](=O)[O-])c1` (centres undefined), the AC50 is 0.731 µM [falling, full curve, poor fit] under setting [2] and 0.731 µM [falling, full curve] under setting [1].
Take `CCOC(=O)C1(C)NC(c2ccco2)C2C(=O)N(C)C(=O)C21` (centres undefined): the cell number change is 7.04%. Also, the AC50 under setting [1] is 0.0164 µM [falling, full curve].
For `C=C1C2(C(=O)Nc3nccs3)CCC(C2)C1(C)C` (centres undefined), the cell number change is -37.4%. Moreover, under setting [2], the AC50 was 11.6 µM [falling, partial curve]. Besides, the AC50 under setting [1] is 32.6 µM [falling, single point].
Take `CCOC(=O)Cc1nn(Cc2nc(-c3ccc(C#N)cc3)cs2)c(=O)c2ccccc12`: the cell number change is -5.74%.
On to `Cc1c(Cl)cccc1NC(=O)COC(=O)CCc1nc2ccccc2n1-c1ccccc1`, for which the cell number change is 2.4%. In addition, the AC50 under setting [1] was 0.461 µM [rising, partial curve, poor fit].
Regarding `COc1ccc(C(CNC(=O)C2COc3ccccc3O2)N2CCCC2)cc1` (centres undefined), the cell number change was determined as 16.6%. Further, under setting [1], the AC50 was 29.1 µM [rising, single point].
With `COc1cccc(-n2c(N)c(C(=O)Nc3c(C)n(C)n(-c4ccccc4)c3=O)c3nc4ccccc4nc32)c1`, the cell number change was 32.2%. Besides, the AC50 under setting [2] is 2.59 µM [rising, full curve, poor fit].
